# According to the supplement of paper PMC7666118:
# Protein sequences, listed by entry. Tags and fused reporters are not part of them. Lines headed by an entry give the natural chain unless they say otherwise; changes in a name come on top.
# UniProt Q9HD42: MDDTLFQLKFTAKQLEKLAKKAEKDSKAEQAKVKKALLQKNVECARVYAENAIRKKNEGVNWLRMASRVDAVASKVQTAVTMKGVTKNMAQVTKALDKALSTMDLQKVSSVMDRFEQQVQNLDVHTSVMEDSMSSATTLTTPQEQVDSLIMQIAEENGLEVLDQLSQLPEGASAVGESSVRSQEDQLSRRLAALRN
# UniProt Q9Y281, whole entry: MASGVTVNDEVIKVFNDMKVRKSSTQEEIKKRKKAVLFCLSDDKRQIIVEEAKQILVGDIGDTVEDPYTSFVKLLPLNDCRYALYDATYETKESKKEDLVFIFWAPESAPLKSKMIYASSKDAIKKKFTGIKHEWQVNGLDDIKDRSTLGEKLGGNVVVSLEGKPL
# UniProt P62633: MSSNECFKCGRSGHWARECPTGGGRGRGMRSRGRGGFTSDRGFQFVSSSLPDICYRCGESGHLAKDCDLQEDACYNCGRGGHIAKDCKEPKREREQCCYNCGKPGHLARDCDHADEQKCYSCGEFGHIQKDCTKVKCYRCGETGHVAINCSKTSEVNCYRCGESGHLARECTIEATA
# UniProt Q7L2Z9: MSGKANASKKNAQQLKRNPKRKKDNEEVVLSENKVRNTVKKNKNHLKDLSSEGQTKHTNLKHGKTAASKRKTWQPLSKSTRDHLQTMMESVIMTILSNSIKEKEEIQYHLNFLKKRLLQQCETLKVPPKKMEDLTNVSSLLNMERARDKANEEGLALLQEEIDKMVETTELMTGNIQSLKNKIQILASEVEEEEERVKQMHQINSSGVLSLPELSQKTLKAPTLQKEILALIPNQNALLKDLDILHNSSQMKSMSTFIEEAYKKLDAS
# UniProt O15078: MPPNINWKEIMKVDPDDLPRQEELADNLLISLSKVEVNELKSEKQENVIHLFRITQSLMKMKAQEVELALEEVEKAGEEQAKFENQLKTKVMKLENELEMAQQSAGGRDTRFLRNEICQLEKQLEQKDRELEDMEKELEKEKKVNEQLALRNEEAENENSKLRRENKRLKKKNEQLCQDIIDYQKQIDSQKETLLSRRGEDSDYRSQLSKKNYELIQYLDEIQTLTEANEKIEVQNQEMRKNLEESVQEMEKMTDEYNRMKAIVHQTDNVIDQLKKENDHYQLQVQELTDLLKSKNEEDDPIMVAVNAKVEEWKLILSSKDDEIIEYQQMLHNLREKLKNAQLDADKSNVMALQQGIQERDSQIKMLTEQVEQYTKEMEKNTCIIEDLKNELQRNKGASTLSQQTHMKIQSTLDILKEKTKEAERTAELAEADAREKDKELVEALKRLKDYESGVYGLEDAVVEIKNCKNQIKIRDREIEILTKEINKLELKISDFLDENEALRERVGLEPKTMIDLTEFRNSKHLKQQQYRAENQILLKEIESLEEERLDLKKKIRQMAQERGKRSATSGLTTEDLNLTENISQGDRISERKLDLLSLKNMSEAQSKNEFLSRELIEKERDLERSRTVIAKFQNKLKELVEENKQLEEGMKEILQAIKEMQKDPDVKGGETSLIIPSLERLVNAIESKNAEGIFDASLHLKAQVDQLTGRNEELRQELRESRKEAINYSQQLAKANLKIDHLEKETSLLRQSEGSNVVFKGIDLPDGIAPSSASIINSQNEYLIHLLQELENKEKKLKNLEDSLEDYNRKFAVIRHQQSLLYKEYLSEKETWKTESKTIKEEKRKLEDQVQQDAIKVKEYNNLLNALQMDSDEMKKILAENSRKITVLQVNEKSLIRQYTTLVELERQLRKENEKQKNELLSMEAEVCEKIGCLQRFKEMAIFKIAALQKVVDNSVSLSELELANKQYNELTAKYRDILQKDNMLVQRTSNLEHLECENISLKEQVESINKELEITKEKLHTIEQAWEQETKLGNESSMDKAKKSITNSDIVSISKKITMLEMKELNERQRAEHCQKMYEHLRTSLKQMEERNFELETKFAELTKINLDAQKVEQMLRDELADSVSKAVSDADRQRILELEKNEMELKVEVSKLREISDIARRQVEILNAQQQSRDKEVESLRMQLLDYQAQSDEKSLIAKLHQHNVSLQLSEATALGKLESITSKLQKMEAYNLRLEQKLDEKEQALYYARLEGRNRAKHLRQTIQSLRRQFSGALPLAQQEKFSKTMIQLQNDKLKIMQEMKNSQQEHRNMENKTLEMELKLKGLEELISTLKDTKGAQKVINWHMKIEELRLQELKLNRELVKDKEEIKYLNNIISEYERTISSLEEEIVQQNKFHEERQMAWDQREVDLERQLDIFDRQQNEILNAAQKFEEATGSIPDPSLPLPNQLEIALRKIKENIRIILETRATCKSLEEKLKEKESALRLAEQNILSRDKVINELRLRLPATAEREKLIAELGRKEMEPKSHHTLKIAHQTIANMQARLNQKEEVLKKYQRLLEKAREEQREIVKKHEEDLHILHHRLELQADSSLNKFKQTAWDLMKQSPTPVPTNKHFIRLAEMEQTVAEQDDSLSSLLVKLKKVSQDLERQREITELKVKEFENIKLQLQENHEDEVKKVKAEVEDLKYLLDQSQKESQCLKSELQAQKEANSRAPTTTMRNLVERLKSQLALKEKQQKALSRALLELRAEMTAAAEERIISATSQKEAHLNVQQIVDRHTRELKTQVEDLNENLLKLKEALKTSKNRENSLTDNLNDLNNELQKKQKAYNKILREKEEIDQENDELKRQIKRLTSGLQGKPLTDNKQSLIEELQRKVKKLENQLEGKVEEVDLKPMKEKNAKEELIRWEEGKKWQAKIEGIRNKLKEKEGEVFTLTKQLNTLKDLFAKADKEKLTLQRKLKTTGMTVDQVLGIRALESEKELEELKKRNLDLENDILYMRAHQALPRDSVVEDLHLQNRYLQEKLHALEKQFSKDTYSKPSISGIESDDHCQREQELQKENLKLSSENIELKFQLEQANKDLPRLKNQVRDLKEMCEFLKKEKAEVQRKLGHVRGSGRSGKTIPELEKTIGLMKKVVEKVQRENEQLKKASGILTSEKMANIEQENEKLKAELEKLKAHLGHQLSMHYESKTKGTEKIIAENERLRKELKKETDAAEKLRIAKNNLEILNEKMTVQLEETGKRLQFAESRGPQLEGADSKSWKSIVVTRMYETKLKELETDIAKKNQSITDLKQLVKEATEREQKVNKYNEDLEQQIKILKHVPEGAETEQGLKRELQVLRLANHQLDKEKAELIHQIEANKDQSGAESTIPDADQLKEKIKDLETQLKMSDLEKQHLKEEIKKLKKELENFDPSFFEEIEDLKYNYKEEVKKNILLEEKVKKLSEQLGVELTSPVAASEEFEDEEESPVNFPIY
# UniProt Q8N4Q1: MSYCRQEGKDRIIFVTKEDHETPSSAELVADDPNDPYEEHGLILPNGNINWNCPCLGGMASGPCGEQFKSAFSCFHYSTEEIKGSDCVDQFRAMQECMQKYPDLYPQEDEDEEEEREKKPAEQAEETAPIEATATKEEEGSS
# UniProt Q9H078: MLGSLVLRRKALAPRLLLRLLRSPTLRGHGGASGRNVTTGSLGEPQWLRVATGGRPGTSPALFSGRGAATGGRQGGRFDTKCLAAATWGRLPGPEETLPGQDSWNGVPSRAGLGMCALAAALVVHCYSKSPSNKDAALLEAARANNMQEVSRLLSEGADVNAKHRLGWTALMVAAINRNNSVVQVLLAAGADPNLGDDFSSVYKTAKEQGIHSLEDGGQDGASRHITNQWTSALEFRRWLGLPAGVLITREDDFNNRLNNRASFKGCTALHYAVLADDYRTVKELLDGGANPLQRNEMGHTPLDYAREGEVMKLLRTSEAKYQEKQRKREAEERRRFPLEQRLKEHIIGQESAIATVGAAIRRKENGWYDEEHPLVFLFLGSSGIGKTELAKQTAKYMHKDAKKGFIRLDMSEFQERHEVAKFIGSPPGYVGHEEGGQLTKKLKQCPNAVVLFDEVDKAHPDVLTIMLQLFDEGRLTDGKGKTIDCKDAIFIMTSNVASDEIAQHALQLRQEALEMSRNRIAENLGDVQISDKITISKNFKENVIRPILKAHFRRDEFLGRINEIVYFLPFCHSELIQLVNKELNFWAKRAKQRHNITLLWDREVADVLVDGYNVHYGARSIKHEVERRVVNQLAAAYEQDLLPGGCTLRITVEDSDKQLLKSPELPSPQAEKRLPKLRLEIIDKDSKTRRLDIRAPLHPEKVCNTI
# UniProt Q9NVX0: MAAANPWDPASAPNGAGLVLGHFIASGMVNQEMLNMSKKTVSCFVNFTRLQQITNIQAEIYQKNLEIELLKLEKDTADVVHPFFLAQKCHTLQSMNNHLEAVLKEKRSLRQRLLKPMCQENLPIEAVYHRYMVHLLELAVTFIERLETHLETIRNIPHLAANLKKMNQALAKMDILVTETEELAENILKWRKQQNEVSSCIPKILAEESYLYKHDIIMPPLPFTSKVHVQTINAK
# UniProt Q12834, whole entry: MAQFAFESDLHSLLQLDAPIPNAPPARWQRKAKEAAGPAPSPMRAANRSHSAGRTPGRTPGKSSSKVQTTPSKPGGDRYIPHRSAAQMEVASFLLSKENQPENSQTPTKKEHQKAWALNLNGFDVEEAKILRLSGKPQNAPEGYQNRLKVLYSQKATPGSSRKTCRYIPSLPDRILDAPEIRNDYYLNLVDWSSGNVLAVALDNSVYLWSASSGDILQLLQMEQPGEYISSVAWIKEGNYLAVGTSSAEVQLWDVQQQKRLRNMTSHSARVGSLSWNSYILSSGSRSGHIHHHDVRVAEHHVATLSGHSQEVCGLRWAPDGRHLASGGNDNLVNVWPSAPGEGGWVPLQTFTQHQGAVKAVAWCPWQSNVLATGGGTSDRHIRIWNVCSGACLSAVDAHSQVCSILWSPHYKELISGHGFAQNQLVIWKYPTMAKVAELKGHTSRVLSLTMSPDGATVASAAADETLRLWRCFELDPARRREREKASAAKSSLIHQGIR
# UniProt P09496: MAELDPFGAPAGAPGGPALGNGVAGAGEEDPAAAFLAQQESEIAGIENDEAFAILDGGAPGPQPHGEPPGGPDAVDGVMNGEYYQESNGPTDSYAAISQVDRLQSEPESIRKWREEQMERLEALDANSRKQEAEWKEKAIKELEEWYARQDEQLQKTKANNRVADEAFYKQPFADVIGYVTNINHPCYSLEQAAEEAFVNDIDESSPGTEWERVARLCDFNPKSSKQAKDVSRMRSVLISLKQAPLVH
# UniProt A6NC98: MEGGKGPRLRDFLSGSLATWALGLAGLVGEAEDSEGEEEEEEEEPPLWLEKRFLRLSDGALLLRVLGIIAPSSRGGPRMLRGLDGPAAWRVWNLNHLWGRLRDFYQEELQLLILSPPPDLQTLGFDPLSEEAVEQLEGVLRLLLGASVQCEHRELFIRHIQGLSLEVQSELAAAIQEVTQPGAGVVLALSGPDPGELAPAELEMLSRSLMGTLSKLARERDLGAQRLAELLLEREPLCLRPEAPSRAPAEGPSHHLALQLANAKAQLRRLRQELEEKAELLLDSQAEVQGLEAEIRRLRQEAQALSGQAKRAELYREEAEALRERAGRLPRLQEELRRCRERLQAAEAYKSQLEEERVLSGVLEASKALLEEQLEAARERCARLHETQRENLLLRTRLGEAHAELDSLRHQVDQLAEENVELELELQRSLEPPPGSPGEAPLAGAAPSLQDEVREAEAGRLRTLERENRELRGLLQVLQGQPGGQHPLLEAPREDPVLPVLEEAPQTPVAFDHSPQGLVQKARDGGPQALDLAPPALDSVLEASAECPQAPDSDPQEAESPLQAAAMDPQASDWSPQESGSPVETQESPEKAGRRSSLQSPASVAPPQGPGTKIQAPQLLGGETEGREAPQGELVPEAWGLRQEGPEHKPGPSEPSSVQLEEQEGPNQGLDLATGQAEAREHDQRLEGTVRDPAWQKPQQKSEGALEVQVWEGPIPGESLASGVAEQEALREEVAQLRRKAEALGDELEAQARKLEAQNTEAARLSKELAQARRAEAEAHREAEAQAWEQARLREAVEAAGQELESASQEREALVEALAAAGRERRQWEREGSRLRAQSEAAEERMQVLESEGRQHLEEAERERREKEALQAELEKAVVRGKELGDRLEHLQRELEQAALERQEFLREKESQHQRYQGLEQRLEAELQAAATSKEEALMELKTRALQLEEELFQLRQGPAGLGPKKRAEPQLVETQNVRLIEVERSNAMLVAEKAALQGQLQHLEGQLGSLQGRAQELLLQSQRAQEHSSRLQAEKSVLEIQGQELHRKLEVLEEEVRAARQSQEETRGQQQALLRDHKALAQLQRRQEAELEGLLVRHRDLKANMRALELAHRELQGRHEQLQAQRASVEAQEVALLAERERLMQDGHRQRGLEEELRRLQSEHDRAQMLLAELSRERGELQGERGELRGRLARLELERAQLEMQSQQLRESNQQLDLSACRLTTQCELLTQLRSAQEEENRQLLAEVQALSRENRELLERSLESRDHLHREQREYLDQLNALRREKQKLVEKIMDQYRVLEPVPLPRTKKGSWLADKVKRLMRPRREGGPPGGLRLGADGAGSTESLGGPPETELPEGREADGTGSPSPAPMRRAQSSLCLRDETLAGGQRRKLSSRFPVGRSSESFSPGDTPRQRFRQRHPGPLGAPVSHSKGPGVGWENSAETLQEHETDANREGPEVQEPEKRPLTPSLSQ
# This is one part of the list.
# Compound: COc1ccc(Cn2ccc3ccc(C(=O)NO)cc32)cc1
# Experiment: dose-dependent thermal stabilisation call (2D-TPP, DLPTP, 10% FDR) (binary (1 = stabilised)); higher = stabilised by the compound
# Details: system: HL-60 intact cells; concentration range 0.04-10 µM
row,Target,dose-dependent thermal stabilisation call
1,CHD2 (UniProt O14647),inactive: 0
2,CNOT6L (UniProt Q96LI5),inactive: 0
3,CHMP1A (UniProt Q9HD42),inactive: 0
4,CHTF18 (UniProt Q8WVB6),inactive: 0
5,CMPK1 (UniProt P30085),inactive: 0
6,CDK9 (UniProt P50750),inactive: 0
7,CEBPA (UniProt P49715),inactive: 0
8,CNOT6 (UniProt Q9ULM6),inactive: 0
9,CD244 (UniProt Q9BZW8),inactive: 0
10,CFDP1 (UniProt Q9UEE9),inactive: 0
11,CKS1B (UniProt P61024),inactive: 0
12,CIAPIN1 (UniProt Q6FI81),inactive: 0
13,CCNC (UniProt P24863),inactive: 0
14,CD2AP (UniProt Q9Y5K6),inactive: 0
15,CLTB (UniProt P09497),inactive: 0
16,CHSY1 (UniProt Q86X52),inactive: 0
17,CIZ1 (UniProt Q9ULV3),inactive: 0
18,CFL2 (UniProt Q9Y281),inactive: 0
19,CNOT2 (UniProt Q9NZN8),inactive: 0
20,CGGBP1 (UniProt Q9UFW8),inactive: 0
21,CCT2 (UniProt P78371),inactive: 0
22,CERCAM (UniProt Q5T4B2),inactive: 0
23,CCT6A (UniProt P40227),inactive: 0
24,CCDC43 (UniProt Q96MW1),inactive: 0
25,CHCHD8 (UniProt Q9NYJ1),inactive: 0
26,CNNM3 (UniProt Q8NE01),inactive: 0

# For convenience, part of the list above.
row,Target,dose-dependent thermal stabilisation call
11,CKS1B (UniProt P61024),inactive: 0
12,CIAPIN1 (UniProt Q6FI81),inactive: 0

# Remaining list, next part.

row,Target,dose-dependent thermal stabilisation call
1,CLCN3 (UniProt P51790),inactive: 0
2,CENPH (UniProt Q9H3R5),inactive: 0
3,CCDC75 (UniProt Q8N954),inactive: 0
4,CD320 (UniProt Q9NPF0),inactive: 0
5,CCNK (UniProt O75909),inactive: 0
6,CLIP1 (UniProt P30622),inactive: 0
7,CCT3 (UniProt P49368),inactive: 0
8,CNBP (UniProt P62633),inactive: 0
9,CHPF (UniProt Q8IZ52),inactive: 0
10,CD2BP2 (UniProt O95400),inactive: 0
11,CLNS1A (UniProt P54105),inactive: 0
12,CLN3 (UniProt Q13286),inactive: 0
13,CENPQ (UniProt Q7L2Z9),inactive: 0
14,CCDC90B (UniProt Q9GZT6),inactive: 0
15,COMMD10 (UniProt Q9Y6G5),inactive: 0
16,CEP290 (UniProt O15078),inactive: 0
17,CCDC94 (UniProt Q9BW85),inactive: 0
18,CLN5 (UniProt O75503),inactive: 0
19,CEBPZ (UniProt Q03701),inactive: 0
20,CCDC22 (UniProt O60826),inactive: 0
21,CCNY (UniProt Q8ND76),inactive: 0
22,CDC27 (UniProt P30260),inactive: 0
23,CHCHD4 (UniProt Q8N4Q1),active: 1
24,CDC5L (UniProt Q99459),inactive: 0
25,CHCHD3 (UniProt Q9NX63),inactive: 0
26,CCDC99 (UniProt Q96EA4),inactive: 0

row,Target,dose-dependent thermal stabilisation call
1,CLPB (UniProt Q9H078),inactive: 0
2,CD69 (UniProt Q07108),inactive: 0
3,CCDC90A (UniProt Q96AQ8),inactive: 0
4,CCDC72 (UniProt Q9Y2S6),inactive: 0
5,CCDC53 (UniProt Q9Y3C0),inactive: 0
6,CHST10 (UniProt O43529),inactive: 0
7,CHORDC1 (UniProt Q9UHD1),inactive: 0
8,CLDND1 (UniProt Q9NY35),inactive: 0
9,CHMP2A (UniProt O43633),inactive: 0
10,CIRH1A (UniProt Q969X6),inactive: 0
11,CLINT1 (UniProt Q14677),inactive: 0
12,CEP27 (UniProt Q9NVX0),inactive: 0
13,CDC20 (UniProt Q12834),inactive: 0
14,CENPJ (UniProt Q9HC77),inactive: 0
15,CISD3 (UniProt P0C7P0),inactive: 0
16,CDV3 (UniProt Q9UKY7),inactive: 0
17,CCDC41 (UniProt Q9Y592),inactive: 0
18,CCDC5 (UniProt Q96CS2),inactive: 0
19,CDYL (UniProt Q9Y232),inactive: 0
20,CD48 (UniProt P09326),inactive: 0
21,CCDC97 (UniProt Q96F63),inactive: 0
22,CHEK2 (UniProt O96017),inactive: 0
23,CLTA (UniProt P09496),inactive: 0
24,CCDC88B (UniProt A6NC98),inactive: 0
